Measured values from patent US7262301B1, “Zinc-chelating ratiometric fluorescent probes and related methods” (Northwestern University, priority 2003, dated 2007).

Test: Quantum yield determination by fluorescence spectroscopy against fluorescein
Format: physicochemical
Conditions: standard fluorescein in 0.1 N NaOH

SMILES: COc1cc(O)c(-c2nc3c(CNCc4ccccn4)cccc3o2)cc1OC [Zinbo-5, 2-(4,5-dimethoxy-2-hydroxyphenyl)-4-(2-pyridlmethyl)aminomethylbenzoxazole]
- Quantum yield, apo form: 0.02
- Quantum yield, zinc complex: 0.10
